Reference: publication PMC4068993, “Chlamydia pneumoniae CopD Translocator Protein Plays a Critical Role in Type III Secretion (T3S) and Infection” (PLoS ONE, 2014)
Numbering of substitutions follows the chain as printed. Results are given in words; binding and its absence hold for the method and conditions named. Binding seen in cells or lysates may run through a third protein. Tags and fused reporters may be left off the sequences shown.

Experiments:
Assay in all cases: pull-down; GST-tagged bait on glutathione-agarose beads blocked with 5% BSA; 1 mL E. coli lysate with overexpressed His-tagged prey, 2 h at 4°C; seven washes with high salt buffer (500 mM KCl, 20 mM TRIS-HCl pH 7.0, 0.1% Triton X-100; results say 500 mM NaCl); anti-His Western blot; only the target purified
[1] = target: T1, GST-^ΔL122ACopD_(1–157) (Chlamydia pneumoniae CWL029) (UniProt Q9Z798)
T1 sequence: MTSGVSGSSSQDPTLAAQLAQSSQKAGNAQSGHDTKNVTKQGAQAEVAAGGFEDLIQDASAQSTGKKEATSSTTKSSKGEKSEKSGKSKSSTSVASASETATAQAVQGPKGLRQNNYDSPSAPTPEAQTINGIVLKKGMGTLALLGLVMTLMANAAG

[2] = target: T2, GST-^ΔP120ACopD_(1–157) (Chlamydia pneumoniae CWL029) (UniProt Q9Z798)
T2 sequence: T1 sequence with P120A, A122L

[3] = target: T3, GST-^ΔP125ACopD_(1–157) (Chlamydia pneumoniae CWL029) (UniProt Q9Z798)
T3 sequence: T1 sequence with A122L, P125A

Measured: binding

His-LcrH_1 (Chlamydia pneumoniae CWL029)
no binding: [1] | [2] | [3]
